Values quoted from earlier work as cited in patent publication US8425894B2, “Use of oligomers of lactic acid in the treatment of gynaecological disorders” (priority 2007, dated 2013).
Some results were stated once for a whole list of compounds, not compound by compound. At least one structure is not confirmed: it was looked up by name or label, or the drawing left a doubt.

Test system: BV
Settings: cited from earlier work; for initial response to treatment: oral or vaginal preparations; for relapse: within 3 months

Structure (SMILES)	initial response to treatment	relapse
CCC[C@@H]1C[C@@H](C(=O)N[C@@H]([C@H]2O[C@H](SC)[C@H](O)[C@@H](O)[C@H]2O)[C@H](C)Cl)N(C)C1 [clindamycin]	80-90%	15-30%
Cc1ncc([N+](=O)[O-])n1CCO [metronidazole]	80-90%	15-30%
